Measurements from PMC10127613 (mBio, 2023).
A negative result means that nothing was seen under these conditions. Where a protein sequence is shown, tags need not be part of it. The comparison behind a weaker result is the experiment's own reference, which may not be listed here.

Target: T1, Clr (Sinorhizobium meliloti) (UniProt Q92SD2)
T1 sequence (looked up): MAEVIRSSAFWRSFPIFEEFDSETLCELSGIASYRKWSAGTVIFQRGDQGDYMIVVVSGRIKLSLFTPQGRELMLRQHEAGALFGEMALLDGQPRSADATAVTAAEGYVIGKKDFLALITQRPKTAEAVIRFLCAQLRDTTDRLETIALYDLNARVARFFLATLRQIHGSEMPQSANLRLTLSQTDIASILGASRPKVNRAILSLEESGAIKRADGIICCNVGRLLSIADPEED
Assay: EMSA
Details: 1 mM cAMP, EMSA: 2 mM HEPES pH 7.0, 30 mM NaCl, 50 mM KCl, 850 ng salmon sperm DNA, 1 ug BSA, 20 ng Cy3-DNA, 3 ug Clr in 10 uL, room temperature, recombinant protein, residues 1-234, protein details: C-terminal His6 (pET36b, NdeI/XhoI), label: 5'-Cy3 on reverse strand

Row | Sequence | binding result
1 | AGCGGATAACAATTTCACACAGGAAACAGCATATGACCATGATTACGCCAAGCTCGAAATTAACCCTCACTAAAGGGAACAAAAGCTGGAGCTCTTAAGCTTAGGTGAGCTTTTCGAAGTCCGGCAGCTGGTAGGTCGAGCAGGTCGGGGTGAAAGCACCCGGCAGCGAAAACAGCACGACGCGCTTGCCGGCGAAATAGTCGTCCGAGGTAACGTCCTGCCAGCGGAACGGATTGGAACCGCCGACGGACTCGTCGCGGACGCGGGTGCGGAAGGTTACAGCGGGAACTTTTCTGCCGAGCATCATCATCTCCTAAAAACTGGCTGCCGGCGGCGCAGTCTTGGGAGGACAGGCGCGCCGGCGGAAATCGAGTGCCCTTCCTAACGAAATTTCCGCTGCAGTGCAGCATCAAAGCGACGGAGACCTCCCGCATGGCAGCCATGCGGAAGGCGCATGACTGCGGGGCAATTAAACGAGCTGCGGCGACAGTCCCCGATCCGGTAGGCCTTGATGATATTGCTGGCAATGAGGCAATTTGCACGGACAGCGCCGCACCTTGAAGTGTAACGCTTAGTGTTATATATAGACCGGTAGGATGGCGTCTAGACTGCAGATGGTGAGCAAGGGCGAGGAGCTGTTCA (double strand) [SMc01995] | binds
2 | AGCGGATAACAATTTCACACAGGAAACAGCATATGACCATGATTACGCCAAGCTCGAAATTAACCCTCACTAAAGGGAACAAAAGCTGGAGCTCTTAAGCTTAGTCGAGCGCGGCTTCAAATCGGGTGAGATGCGTTCACGCGACTCGAAGTACGCGCCGACCGATATCGATTGCCCTTCCGCCAGCGGTCCGCTCCTCCCGAGCCCGCATGGCGACGTTGTAACATTTGTCTTTTTTTCGGGCTGCCGCAACCGTTTCGCGCCACAAGGGGCAAAAAAATGCGAGCGCGTATGTAACGCCGGAAACAGCGCCTTCATGTTCCGTTCAGGAAAGATCGCATTATGTTGCATAAGAACGATCTCGCCGTATCCGTGCATTTTCCTCGGCGGCGGGTTATGTTCCGAATGCAAGTTCAAGTGGAGGGCCGCGGTTCGCACCCTCCCATCACTATGGGGCGGACGAGGCGGCACGCTGAATCCGTCGAAATCGGAGAGGACATCATGAAGAAAGCCATCGCGCTTGTGTCTAGACTGCAGATGGTGAGCAAGGGCGAGGAGCTGTTCA (double strand) [SMc03100 / SMc03101] | binds
3 | AGCGGATAACAATTTCACACAGGAAACAGCATATGACCATGATTACGCCAAGCTCGAAATTAACCCTCACTAAAGGGAACAAAAGCTGGAGCTCTTAAGCTTATTGTTGTTGCCTGACCCGCCTGACCCACCTGAACTTCCCATCGCAGTTCTCCAATCCAGTAACGTTTCTACCTCTGATAGGTCGCAATCCATTCAAACGTTAGCAAAATGCAGTACGACCAAATAAATCACGTAGTTGATTATGGCATAGATGAGAAGGGTAACCCATTTTGGCGGAGATAACCCTGCAATTTTTATAATATAATCCACGATTGTCATCGACAAAAACACAATAATGGCGGCAATTATAGGGTATAAACTCATCTAGATCCCCGATAGCAGAGCTATAGCGTCTCCTATCTCAGCATAAAGACGCTGATGGTCAATAAACAATATATTGTACTTTTTGGTTGAGGAGTCAAATTGATTCTGGTATCAGGGATAATTGCGGGAGACGATCTTCGAGTGTGGTGGGGGATACTTACGAAGTGGTGGATAATCTCCGATTAGCACCTCTTTCGACTAGACTGCAGATGGTGAGCAAGGGCGAGGAGCTGTTCA (double strand) [SMc02661] | no binding
4 | AGCGGATAACAATTTCACACAGGAAACAGCATATGACCATGATTACGCCAAGCTCGAAATTAACCCTCACTAAAGGGAACAAAAGCTGGAGCTCTTAAGCTTCAATGCCTGCACGAGTACATCGAGATGCCCGTTGGTGATCGGATCGAAGGAGCCGGGATAGAAAGCCGTGGTCATCGCGCCTGTTTCCGTTTGGTGAAGCCTTTTGTCACGGACGGCCGCGGACCGCAAGGGTTGTACGATCCTTGCGCCCTGTTCCCCGGGAAACAGCGGCGGCAAAAGGCTGAATGCTAGATGAATGCAACGTTCAAGAGGGTTTCACACTGCAAGCCGTAACGTGAACCCAAGTTAACGGGAACTTTTTTGAGTACATGCCGTTTAAACCGACGAAAGGAGACGGCCATGGGACTTGCTCTATCTAGACTGCAGATGGTGAGCAAGGGCGAGGAGCTGTTCA (double strand) [coaD / SMc06520] | binds
5 | AGCGGATAACAATTTCACACAGGAAACAGCATATGACCATGATTACGCCAAGCTCGAAATTAACCCTCACTAAAGGGAACAAAAGCTGGAGCTCTTAAGCTTCATCGATGAGGGGGACATCGTTCTGGCGATGCTGTGGCATGCCCGATCTCTTATTGAACTGATTGCCGAGCGGCGGCGTGCCGGCAATCTGGTCAGGAATCGGGTGGAAACACGCCGGCAATTGGCGAGACTTCCAGCCAGGGTGCGAAACGACCTGTTACCCGCGGAACAGCAGCCGATCAGAGCATCCGATAGAAAGGCTATAGCGGGCGAAATCAATCACGATGTTTGATGAATTACATCAAACATATTCGTTTGAATGATCAATCGCGTTGCACCATAACGTCCATGGTCGCGACCTTTTGAGGAACTCAGAAGGAACCAGCAATGTCTATGAACGAGCATTCGTCATCCGCATCTAGACTGCAGATGGTGAGCAAGGGCGAGGAGCTGTTCA (double strand) [SMc04163 / SMc04164] | binds
6 | AGCGGATAACAATTTCACACAGGAAACAGCATATGACCATGATTACGCCAAGCTCGAAATTAACCCTCACTAAAGGGAACAAAAGCTGGAGCTCTTAAGCTTCCGACTGGCACATCTGAGTTAGGAAAGCAGACCTGAACCAGGAAAGAGGTTTCCAGCGGCCGGCAGCCCCAAGGCTCTGCCGGTCAGAATGGATCGACTGAACCCGCTTTCGCTAACCATTCTTTACACCGCGCATGCGTTCTCTTTGATGAAGGACCAGCTCCTCATCAAGCATCGACGTGCCGCGAAGACGTCGGTGCATTCAGAATCTTTCGCAAGGGCAAACGCTCACTTGGGGCGTTATCACCCTGCAGACCGGTTGGGCTCGTTGACAGTTTCATGGGACAAGAAGGGAAACGGGACGAAGTACCCCCGATCGAGATCTCCGGGAAATCGCCAAACTTGTTCCCTTAGGAACTGCGGGGATTTTCAGTAACTGTCATAAATGAGAGCCTAGAACGGAAATCTGCAGAAACAGCTCGTGCACCAAAGGGAAAGCGCACATGACGTGAATGGACTAGACTGCAGATGGTGAGCAAGGGCGAGGAGCTGTTCA (double strand) [SMa06349] | binds
7 | AGCGGATAACAATTTCACACAGGAAACAGCATATGACCATGATTACGCCAAGCTCGAAATTAACCCTCACTAAAGGGAACAAAAGCTGGAGCTCTTAAGCTTCCGCCGAAATATGGACGAACACGTCAGCGGCGCCGTCATCTGGCTGGATGAAACCGAAGCCCTTGGTGCTGTTGAACCACTTTACCGTTCCAGAAGCCACGTCGATGTCCTTTCAATAGCCATGGAAAACCGCCACCGCATAAAAACGGTGTATCAAAACCGATGTTGTCAGGATTTTCGTGACGATGCGCCTTGGCGCAGAAACAAATATCGTCGATCAATATCGATACCGAGCTATGTAGGTCATCATTGTGTTTCTTACAAGGCACAATTTTATTTTCTTTCGGGAGAAGACTATCGGCGCGACCGCAGGCGGCCCGGCCAAGGCAGCAATGCTGCAATTAGCTTGTGGACTTTCCCCCAACGGGCCTTAAATCTCCGCACTGGACCAACTCTCAGGACAATCCCCCATGCACGATCCGATCCCGACCATCGCTTTTCCGTCTAGACTGCAGATGGTGAGCAAGGGCGAGGAGCTGTTCA (double strand) [cspA2 / SMc01429] | no binding
8 | AGCGGATAACAATTTCACACAGGAAACAGCATATGACCATGATTACGCCAAGCTCGAAATTAACCCTCACTAAAGGGAACAAAAGCTGGAGCTCTTAAGCTTCCGGAAGGCACGGAAATGGTCATGCCGGGCGACAACGTCACGGTTGACGTCGAGCTGATCGTGCCGATCGCGATGGAAGAAAAGCTGCGCTTCGCTATCCGCGAAGGCGGCCGCACCGTCGGCGCAGGCATCGTCGCCTCCATCGTCGAGTAACAAGAAAACGGCTTGAGCCGTTTCGGCAGGGACATGGTCCGCCATGTCCCTGCGATTTTTGAAAAGAAGCGGCTAAGCGAAACGAATACTTCAAGTGTGTGCTTCGTGAGCACACCGGAAAACACGAGCAAGGACAAGTCGAATGAACGGCCAGAATATCCGCTCTAGACTGCAGATGGTGAGCAAGGGCGAGGAGCTGTTCA (double strand) [rpsJ] | binds more weakly
9 | AGCGGATAACAATTTCACACAGGAAACAGCATATGACCATGATTACGCCAAGCTCGAAATTAACCCTCACTAAAGGGAACAAAAGCTGGAGCTCTTAAGCTTCCGTCTCGATCAGATTCGGGATGAGATCGGCGCGGCGCTTCAACTGCACGTCGATGCCGGACCAGGCCTCCTCGGCCATCTGCCGCGCCTTGACGAGGCCGTTATAGACGAAGACGAGATAAAGAATAACGGCGACGCCAATTGCCAGCCCGATCATCAAACCCTCCTTTGGATCACGGCGATCCTACTGCATGCTTTCTTAAATTCCATTCGATTCAAGAACAAACCAACGTTCTACAGCGGCCGATCACAAGACCGCCCCTGCCCCTGCCCAGCAGGTCGTGCCGACGCCTGCAGCCTCAGGCTGTTCCACCGGTAACGGCAACGCGTCGGCGGATGCTCGATAGTCTATTCATCGAACAACCACAACGCTTAGTGCCCGCCATGAACACGCCCGTGAGCTTCTCTAGACTGCAGATGGTGAGCAAGGGCGAGGAGCTGTTCA (double strand) [SMc00853 / SMc00854] | binds
10 | AGCGGATAACAATTTCACACAGGAAACAGCATATGACCATGATTACGCCAAGCTCGAAATTAACCCTCACTAAAGGGAACAAAAGCTGGAGCTCTTAAGCTTCCTTGGCCATGCTGCCTTGTAAAGGGGCCGCGGGGGCTCGGAACACCTACAATCGTTTGAATTGCCGCCGAGCGGCAAGCTCCGACCGGGCATCGCCGACATGGGTTTCCGGCCGGCAGCGATGTGTCCTTTCCGTCACATCCGCAATCTTCCGTTGCGCGTCTTCCTTGTGTCGCAGGGAACATCGGCATCGCGCCCGGCCGGGCAAAGTAGATGCAAATCAGATTTTTAGGCGAAGGGGCATGGCTGAAAACGGATCGCGGCGAGACGCGGGGCGCGGATTCGGGAGGCTTCGTTTCCTTTTCATTCACCATCCTTTTCTATAACTCTCGGAGCACGAGGGCGTGGCGAGAATCTGGCGGCGGCTGCATTCGGCGGCGACGCAATACGGGGACGTTTGTATCTATGAGAATCATCAAGTCGGCAGCGTCTAGACTGCAGATGGTGAGCAAGGGCGAGGAGCTGTTCA (double strand) [fumC / SMc00150] | binds
